PubChem BioAssay AID1671195, Yale University – 2021
The whole screen tested about 22,000 reagents; shown is a random part of them. About 1,510 of them (6.9%) were called active. 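Active includes knockdowns raising or lowering LDL uptake; positive z-scores mean more uptake, negative mean less.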 Unmarked entries are inactive.

Assay: 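Genes whose knockdown alters LDL uptake in liver cancer cells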 (primary screen)
Cells: human Huh7 hepatoma cells
Reagent: siRNA pool against human genes, 18 nM
Duration: about 2 to 2.5 days of knockdown, then 8 h LDL uptake
Challenge: DiI-labelled LDL at 30 µg/ml for 8 h, in lipoprotein-deficient serum medium
Detection: 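Per-cell DiI-LDL intensity by automated imaging; well means scaled to the plate median and given as a robust z-score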
Direction: robust z-score: higher = more LDL uptake after knockdown
Hit rule: 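a gene counts as active if at least two replicate z-scores exceed ±2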

With knock-down of C2, the record shows robust z-score, replicate 1 = -0.149; robust z-score, replicate 2 = -0.778; robust z-score, replicate 3 = 0.0138.
DCHS1 scored robust z-score, replicate 1 = -1.72; robust z-score, replicate 2 = -1.16; robust z-score, replicate 3 = -1.25.
After knock-down of LOC392993 (retired record), the record shows robust z-score, replicate 1 = -0.764; robust z-score, replicate 2 = -0.348; robust z-score, replicate 3 = -0.581.
Against ANP32F (retired record) the deposit lists robust z-score, replicate 1 = -0.19; robust z-score, replicate 2 = -0.296; robust z-score, replicate 3 = -0.327.
Silencing of PRMT1 came out at: robust z-score, replicate 1 = 0.459; robust z-score, replicate 2 = -0.453; robust z-score, replicate 3 = 0.49.

2 entries from above, limited to “robust z-score, replicate 3”.
ANP32F (retired record)	-0.327
PRMT1	0.49

Further records follow.
Knock-down of XRN1 came out at: robust z-score, replicate 1 = -1.89; robust z-score, replicate 2 = -1.11; robust z-score, replicate 3 = -0.203.
H4C7 scored robust z-score, replicate 1 = -0.0309; robust z-score, replicate 2 = 0.883; robust z-score, replicate 3 = -0.766.
With knock-down of APPL2 the results were robust z-score, replicate 1 = 1.38; robust z-score, replicate 2 = 0.101; robust z-score, replicate 3 = 1.09.
After knock-down of OR4C15, the screen gave robust z-score, replicate 1 = -0.725; robust z-score, replicate 2 = -0.959; robust z-score, replicate 3 = -1.11.
Knock-down of RET gave: robust z-score, replicate 1 = -0.473; robust z-score, replicate 2 = -0.0049; robust z-score, replicate 3 = -0.411.
LIPE scored robust z-score, replicate 1 = -1.7; robust z-score, replicate 2 = -1.56; robust z-score, replicate 3 = -1.51.
Depletion of OR5A1 resulted in: robust z-score, replicate 1 = -0.89; robust z-score, replicate 2 = -1.33; robust z-score, replicate 3 = -1.08.
Depletion of VRTN came out at: robust z-score, replicate 1 = -0.28; robust z-score, replicate 2 = 1.8; robust z-score, replicate 3 = 0.598.
Knock-down of LOC283816 (retired record) resulted in: robust z-score, replicate 1 = -0.258; robust z-score, replicate 2 = 0.0441; robust z-score, replicate 3 = -0.138.
For XPO4, the values are robust z-score, replicate 1 = 0.923; robust z-score, replicate 2 = 0.128; robust z-score, replicate 3 = 1.28.
For CAV1 the deposit lists robust z-score, replicate 1 = 1.56; robust z-score, replicate 2 = -0.421; robust z-score, replicate 3 = -0.52.
